Reference: the supplement of paper PMC11006884
The list shows a part of the results, in another mix than the full data.

Compound: COC(=O)C#Cc1ccccc1 [methyl 3-phenylpropiolate]
Assay: log2 ratio of iodoacetamide-alkyne labeling of the cysteine site, DMSO over compound (competition); higher = stronger covalent engagement of the cysteine by the compound, active = 1 or more
Conditions: 500 µM; treatment time 1 h; system: HEK293T cell lysate
Method in brief: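 Three replicates, each with duplicate channels, were prepared from HEK293T lysate (2 mg/mL) treated with vehicle or electrophile at 500 µM for 1 h at ambient temperature. Iodoacetamide alkyne was then applied for 1 h, and samples were clicked to sCIP-TMT reagents, pooled, trypsin-digested overnight at 37 °C, enriched on streptavidin, acid-eluted and analysed on Orbitrap Eclipse LC-MS/MS with FAIMS, with FragPipe quantification. The log2 competition ratio per cysteine is the mean control-channel divided by the mean compound-channel reporter intensity. Cysteines quantified in only one replicate were left out.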

Target | log2 ratio of iodoacetamide-alkyne labeling
ACO2 C451 (UniProt Q99798) | inactive: 0.28
PBK C22 (UniProt Q96KB5) | inactive: 0.282
PASK C15 (UniProt Q96RG2) | inactive: 0.404
AGAP3 C356 (UniProt Q96P47) | inactive: 0.61
PURB C238 (UniProt Q96QR8) | inactive: 0.179
IFT140 C1360 (UniProt Q96RY7) | inactive: 0.195
MMS19 C549 (UniProt Q96T76) | active: 1.36
DDX50 C603 (UniProt Q9BQ39) | inactive: 0.552
ARAP1 C774 (UniProt Q96P48) | inactive: 0.384
UniProt Q99590_C450 | inactive: 0.563
RSF1 C650 (UniProt Q96T23) | inactive: 0.578
EHMT2 C596 (UniProt Q96KQ7) | inactive: 0.247
DOK1 C115 (UniProt Q99704) | inactive: 0.357
PSMD1 C898 (UniProt Q99460) | inactive: 0.167
MYBBP1A C1096 (UniProt Q9BQG0) | inactive: 0.0752
FUBP3 C148 (UniProt Q96I24) | inactive: 0.191
PLEKHF1 C21 (UniProt Q96S99) | inactive: 0.153
WDR24 C474 (UniProt Q96S15) | inactive: -0.713
RBM14 C108 (UniProt Q96PK6) | inactive: 0.0424

Target | log2 ratio of iodoacetamide-alkyne labeling
MARK4 C216 (UniProt Q96L34) | inactive: 0.33
MED15 C660 (UniProt Q96RN5) | inactive: 0.75
PSMD1 C633 (UniProt Q99460) | inactive: 0.286
UniProt Q9BPX6_C83 | inactive: 0.582
MYBBP1A C305 (UniProt Q9BQG0) | inactive: 0.0664
TMEM209 C301 (UniProt Q96SK2) | inactive: 0.858
DNAJC2 C394 (UniProt Q99543) | inactive: -0.101
MIPEP C518 (UniProt Q99797) | inactive: -0.145
KIF2C C154 (UniProt Q99661) | inactive: 0.788
RBM14 C90 (UniProt Q96PK6) | inactive: 0.108
RNF2 C72 (UniProt Q99496) | inactive: 0.325
ITCH C57 (UniProt Q96J02) | inactive: 0.127
VPS35 C653 (UniProt Q96QK1) | inactive: 0.298
DDX50 C417 (UniProt Q9BQ39) | inactive: 0.438
NCAPG C966 (UniProt Q9BPX3) | inactive: 0.355
ZFR C5 (UniProt Q96KR1) | inactive: 0.575
TTC1 C149 (UniProt Q99614) | inactive: 0.156
RPRD1A C151 (UniProt Q96P16) | inactive: 0.458

Random excerpt: 2 entries already listed, in no set order.
Target | log2 ratio of iodoacetamide-alkyne labeling
PBK C22 (UniProt Q96KB5) | inactive: 0.282
ARAP1 C774 (UniProt Q96P48) | inactive: 0.384
